# From PubChem BioAssay AID588590 (National Center for Advancing Translational Sciences (NCATS), 2011)
# The chains behind the UniProt entries cited, without tags or fusion partners. Where a name states a change or a piece, a line headed by the entry shows the natural chain unless it says otherwise.
# UniProt Q9UNA4: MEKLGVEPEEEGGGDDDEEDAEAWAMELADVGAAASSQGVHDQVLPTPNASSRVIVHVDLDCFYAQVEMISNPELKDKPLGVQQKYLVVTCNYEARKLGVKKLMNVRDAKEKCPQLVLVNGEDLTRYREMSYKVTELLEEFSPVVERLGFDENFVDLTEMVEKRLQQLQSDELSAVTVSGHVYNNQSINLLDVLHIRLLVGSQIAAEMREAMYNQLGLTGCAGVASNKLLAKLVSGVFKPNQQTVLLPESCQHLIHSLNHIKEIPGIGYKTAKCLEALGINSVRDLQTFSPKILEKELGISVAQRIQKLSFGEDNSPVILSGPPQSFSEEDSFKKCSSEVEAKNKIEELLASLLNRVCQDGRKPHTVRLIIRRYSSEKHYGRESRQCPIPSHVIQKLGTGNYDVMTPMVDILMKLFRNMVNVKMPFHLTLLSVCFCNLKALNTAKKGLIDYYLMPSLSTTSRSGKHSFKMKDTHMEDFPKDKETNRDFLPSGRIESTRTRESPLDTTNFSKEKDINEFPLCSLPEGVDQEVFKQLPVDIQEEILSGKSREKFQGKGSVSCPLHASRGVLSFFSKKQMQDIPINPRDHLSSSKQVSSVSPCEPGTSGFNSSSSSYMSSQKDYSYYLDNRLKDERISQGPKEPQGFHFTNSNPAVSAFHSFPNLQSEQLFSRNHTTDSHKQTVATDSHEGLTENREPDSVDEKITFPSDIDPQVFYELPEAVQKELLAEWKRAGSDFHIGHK
# Out of some 390,000 compounds screened, about 4,000 (1%) were called active. Inconclusive results, whose numbers are uncertain, are shown with a selection of clear calls. The call rests on the fitted dose curve; in most records, active means well fitted inhibition curve with a large enough effect; inconclusive means small, poorly fitted or top-dose-only effect, or another doubt; inactive means no such curve, though single readings can be large or run the other way. Potencies beside an inconclusive call are fits to weak or partial responses and may not hold up.
# Molecular target: DNA polymerase iota (Homo sapiens) (UniProt Q9UNA4)
# Experiment: qHTS for Inhibitors of Polymerase Iota
# Conditions: Pol iota fluorescent replication assay, 10 min; series mostly up to 115 µM
# Outline: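 Fluorescent replication assay read twice, at 0 min and 10 min after adding 50 nM (final) substrate. Enzyme (10 nM) and compounds were first incubated 15 min at room temperature; enzyme-free buffer wells were negative controls.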
# Potency means the concentration at half of the fitted maximal effect.
row,SMILES,Potency
1,Nc1nncn1C(=O)CCc1ccccc1,"inconclusive: 35.5 µM [inhibitor, partial curve, poor fit]"
2,Cc1cc(C)c(CN2CCN(C(=O)Cn3cnc4c(NCc5ccccc5)ncnc43)CC2)c(C)c1,"inconclusive: 31.6 µM [inhibitor, partial curve, poor fit]"
3,NS(=O)(=O)c1ccc(CNC(=O)/C=C/c2cccc(Cl)c2)cc1,inactive
4,O=C(CSc1nnnn1C1CCCCC1)Nc1cccc(NC(=O)c2ccco2)c1,"inconclusive: 31.6 µM [inhibitor, single point]"
5,CCCc1ccc(C(=O)Cn2nc(C(=O)O)c3ccccc3c2=O)cc1,"inconclusive: 31.6 µM [inhibitor, partial curve, poor fit]"
6,Cc1ccc(NC(=O)CSc2nc3ccccc3nc2Cc2ccccc2F)cc1F,"inconclusive: 15.8 µM [inhibitor, full curve, poor fit]"
7,Cc1sc2nc[nH]c(=S)c2c1-c1ccccc1,inactive
8,CCCn1nnnc1NC(=O)c1ccc(C)cc1Cl,"inconclusive: 5.01 µM [inhibitor, full curve, poor fit]"
9,Cc1ccc(/C=N/NC(=O)Cc2ccc(Cl)cc2)s1,"inconclusive: 56.2 µM [inhibitor, partial curve, poor fit]"
10,O=S(=O)(NCc1ccccc1)c1cccs1,"inconclusive: 79.4 µM [inhibitor, partial curve]"
11,COc1cc(/C=C2\SC(=O)N(CC(=O)Nc3cccc(C)c3)C2=O)cc([N+](=O)[O-])c1O,"inconclusive: 25.1 µM [inhibitor, single point]"
12,COC(=O)C(NS(=O)(=O)c1ccccc1Br)C(C)C (centres undefined),"inconclusive: 31.6 µM [inhibitor, partial curve, poor fit]"
13,Fc1ccc(Nc2nnc(C(F)(F)F)s2)cc1Cl,inactive
14,Nn1c(Cc2ccccc2)nc2sc3c(c2c1=O)CCC3,"inconclusive: 14.1 µM [inhibitor, partial curve, poor fit]"
15,COc1ccc(C(=O)Nc2ccc(-n3nncc3-c3ccc(OC)c(OC)c3)cc2)cc1,"inconclusive: 89.1 µM [inhibitor, partial curve, poor fit]"
16,Cc1ccc(S(=O)(=O)c2nc(-c3ccccc3)oc2N2CCN(c3ccccc3)CC2)cc1,"inconclusive: 79.4 µM [inhibitor, partial curve, poor fit]"
17,CCOC(=O)CCCCC(=O)c1[nH]c(=O)[nH]c1CSc1nc(C)cc(C)n1,inactive
18,CCC(=O)Nc1nnc(S(=O)(=O)N(C)Cc2ccco2)s1,"inconclusive: 56.2 µM [inhibitor, partial curve, poor fit]"
19,c1ccc(-c2ccccc2OCc2nnc3n2CCC3)cc1,"inconclusive: 12.6 µM [inhibitor, single point]"
20,CC(C)C[C@H]1CNC(=S)N1CC1CCCN1C[C@H](Cc1ccc(O)cc1)N1C[C@H](Cc2ccccc2)N(CC2CCCCC2)C1=S (some centres undefined),"inconclusive: 100 µM [inhibitor, single point]"
21,COc1ccc(Cl)cc1NC(=O)CN(c1cc(C)cc(C)c1)S(=O)(=O)c1c(C)n[nH]c1C,active: 79.4 µM
22,CC(C)Sc1nnc(NC(=O)C2CC2)s1,"inconclusive: 0.631 µM [inhibitor, full curve, poor fit]"

# Three structures already listed, ordered by number of heavy atoms, ascending.
row,SMILES,Potency
12,COC(=O)C(NS(=O)(=O)c1ccccc1Br)C(C)C (centres undefined),"inconclusive: 31.6 µM [inhibitor, partial curve, poor fit]"
18,CCC(=O)Nc1nnc(S(=O)(=O)N(C)Cc2ccco2)s1,"inconclusive: 56.2 µM [inhibitor, partial curve, poor fit]"
5,CCCc1ccc(C(=O)Cn2nc(C(=O)O)c3ccccc3c2=O)cc1,"inconclusive: 31.6 µM [inhibitor, partial curve, poor fit]"

# Continuation.

row,SMILES,Potency
1,CCCCC(=O)N1C/C=C\C(c2ccc(OC)cc2)N(Cc2ccc(F)cc2)C(=O)[C@H]1Cc1ccccc1 (some centres undefined),"inconclusive: 7.08 µM [inhibitor, partial curve]"
2,O=C1OC(c2ccccc2)=N/C1=C\C=C\c1ccco1,"inconclusive: 50.1 µM [inhibitor, partial curve]"
3,CCOC(=O)c1cc(-c2ccc(C)cc2)nn1Cc1ccccc1,inactive
4,NC(=S)c1ccc[n+]([O-])c1,"inconclusive: 17.8 µM [inhibitor, partial curve]"
5,CSCC[C@H](NC(=O)Cc1c(C)c2c(cc(C)c3c(C)c(C)oc32)oc1=O)C(=O)O,"inconclusive: 70.8 µM [inhibitor, single point]"
6,COc1ccc(CCNC(=O)CCc2c(C)nc3c(c(C)nn3-c3ccc(C)cc3)c2C)c(OC)c1,inactive
7,Cc1cc(C)cc(NC(=S)NC2CC3CCCC(C2)N3C2CC2)c1 (centres undefined),"inconclusive: 56.2 µM [inhibitor, partial curve, poor fit]"
8,COc1ccc(NS(=O)(=O)c2cccc(C(=O)N/N=C(\C)c3cccnc3)c2)cc1,inactive
9,CC(=O)c1cccc(N2C(=NC(=O)C(C)C)SC3CS(=O)(=O)CC32)c1 (centres undefined),"inconclusive: 44.7 µM [inhibitor, single point]"
10,CCOC(=O)c1cnc(-n2nc(C)cc2C)[nH]c1=O,"inconclusive: 31.6 µM [inhibitor, partial curve, poor fit]"
11,COc1cccc(CNC(=O)CC(c2ccc(F)cc2)N2Cc3ccccc3C2=O)c1 (centres undefined),"inconclusive: 89.1 µM [inhibitor, single point]"
12,Cc1cc(OCCCSc2nc(-c3ccc(C(C)(C)C)cc3)nc3cc(=O)[nH]n23)ccc1Cl,"inconclusive: 89.1 µM [inhibitor, single point]"
13,O=C(Cn1cnc2c(nc3n2CCCCC3)c1=O)Nc1ccc(F)cc1,inactive
14,CCCN(CCC)CCCNC(=O)Cn1cnc2onc(-c3ccc(F)cc3)c2c1=O,inactive
15,CCNC(=O)c1ccc(CSc2ccc(Cl)cc2)cc1,active: 79.4 µM
16,Cc1cc(C)c(S(=O)(=O)Nc2ncn[nH]2)cc1C,inactive
17,COC(=O)C(C)Sc1nnc2cc(C)c3cc(C)cc(C)c3n12 (centres undefined),inactive
18,Cc1ccc(NC(=O)c2sccc2C)nc1,inactive
19,COc1cc(/C=C(/C#N)C(=O)Nc2ccccc2)c(Br)cc1OCc1ccc(C(=O)O)cc1,"inconclusive: 39.8 µM [inhibitor, single point]"
20,CCC(=O)NC1CC(=O)N(c2ccc3c(c2)OCCO3)C1 (centres undefined),inactive
21,COc1ccccc1NC(=O)Cn1c(=O)n(Cc2ccco2)c(=O)c2oc3ccccc3c21,inactive
22,CCCCCCSc1cc(-c2nc3ccc(Cl)cn3c2NC2CCCCC2)ccc1OC,"inconclusive: 28.2 µM [inhibitor, partial curve, poor fit]"
